The target in this assay is pathological tau in human Alzheimer's Disease (AD) brain tissue sections (human) (UniProt P10636). In words: IHC, cryo AD brain sections; non-AD sections graded +/++.

Protein sequences, listed by entry. Tags and fused reporters are not part of them. Lines headed by an entry give the natural chain unless they say otherwise; changes in a name come on top.
UniProt P10636: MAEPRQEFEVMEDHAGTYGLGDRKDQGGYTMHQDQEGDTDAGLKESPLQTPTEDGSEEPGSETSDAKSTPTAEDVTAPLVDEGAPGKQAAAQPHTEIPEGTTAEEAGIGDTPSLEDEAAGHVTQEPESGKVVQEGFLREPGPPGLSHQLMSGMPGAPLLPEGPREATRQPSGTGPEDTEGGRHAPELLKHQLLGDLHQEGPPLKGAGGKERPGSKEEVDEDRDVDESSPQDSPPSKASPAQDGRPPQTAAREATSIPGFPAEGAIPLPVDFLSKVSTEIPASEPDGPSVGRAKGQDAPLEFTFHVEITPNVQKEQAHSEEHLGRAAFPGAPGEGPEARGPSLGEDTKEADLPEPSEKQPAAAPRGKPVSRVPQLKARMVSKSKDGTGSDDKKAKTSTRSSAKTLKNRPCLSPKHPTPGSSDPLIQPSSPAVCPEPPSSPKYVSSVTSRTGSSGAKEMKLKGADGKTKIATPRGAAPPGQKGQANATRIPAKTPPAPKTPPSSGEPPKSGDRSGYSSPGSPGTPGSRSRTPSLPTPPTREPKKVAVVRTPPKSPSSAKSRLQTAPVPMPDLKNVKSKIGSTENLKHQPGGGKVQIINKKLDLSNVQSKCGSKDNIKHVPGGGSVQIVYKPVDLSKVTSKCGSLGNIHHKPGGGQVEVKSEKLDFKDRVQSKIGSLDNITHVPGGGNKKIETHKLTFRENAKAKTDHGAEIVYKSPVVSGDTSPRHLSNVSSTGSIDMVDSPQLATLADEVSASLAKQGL

These are yes or no findings as the source states them, for the method shown. Some binding calls cover weakened binding; strength is not graded here.

B1: V0030 (antibody, mouse IgG1, V domains shown)
VH: QVQLQQPGTELVKPGASVKLSCKASGYTFTSYWMHWVKQRPGQGLEWIGNIYPSNGGTNYNEKFKNKATLTVDKSSSTASMQLSSLTSEDSAVYYCARSSVVARDYAMDYWGQGTSVTVSS
VL: DVLMTQTPLSLPVSLGDQASISCRSSQNIVHSNGNTYLEWYLQKPGQSPKLLIYKVSNRFSGVPDRFSGSGSGTDFTLKISRVEAEDLGVYYCFQGSHVPYTFGGGTKLEIK
Take B1: the binding result is reported as “binds”.

Source of the values: patent US20230192830A1.
